Measured values as given in publication PMC3084704.
These are yes or no findings as the source states them, for the method shown. Binding seen in cells or lysates may run through a third protein. Some binding calls cover weakened binding; strength is not graded here. Tags and fused reporters may be left off the sequences shown.

Sequences of proteins named here, by UniProt entry; tags and fusion partners are left off.
UniProt P23284: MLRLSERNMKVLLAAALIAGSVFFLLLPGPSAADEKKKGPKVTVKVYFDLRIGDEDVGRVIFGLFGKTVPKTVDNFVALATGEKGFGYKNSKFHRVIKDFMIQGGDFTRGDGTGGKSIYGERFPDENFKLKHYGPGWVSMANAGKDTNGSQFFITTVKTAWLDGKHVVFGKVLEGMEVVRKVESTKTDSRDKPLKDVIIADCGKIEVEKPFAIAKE

Experiments:
[1] = target: T1, recombinant GST fusion protein of CsA associated helicase-like protein (CAHL), full length (human) (UniProt Q9H6S0); assay: pull-down; GST pull-down: recombinant GST-CAHL incubated with [35S]-labelled in vitro translation products; GST as negative control; no CsA; only the target purified
T1 sequence: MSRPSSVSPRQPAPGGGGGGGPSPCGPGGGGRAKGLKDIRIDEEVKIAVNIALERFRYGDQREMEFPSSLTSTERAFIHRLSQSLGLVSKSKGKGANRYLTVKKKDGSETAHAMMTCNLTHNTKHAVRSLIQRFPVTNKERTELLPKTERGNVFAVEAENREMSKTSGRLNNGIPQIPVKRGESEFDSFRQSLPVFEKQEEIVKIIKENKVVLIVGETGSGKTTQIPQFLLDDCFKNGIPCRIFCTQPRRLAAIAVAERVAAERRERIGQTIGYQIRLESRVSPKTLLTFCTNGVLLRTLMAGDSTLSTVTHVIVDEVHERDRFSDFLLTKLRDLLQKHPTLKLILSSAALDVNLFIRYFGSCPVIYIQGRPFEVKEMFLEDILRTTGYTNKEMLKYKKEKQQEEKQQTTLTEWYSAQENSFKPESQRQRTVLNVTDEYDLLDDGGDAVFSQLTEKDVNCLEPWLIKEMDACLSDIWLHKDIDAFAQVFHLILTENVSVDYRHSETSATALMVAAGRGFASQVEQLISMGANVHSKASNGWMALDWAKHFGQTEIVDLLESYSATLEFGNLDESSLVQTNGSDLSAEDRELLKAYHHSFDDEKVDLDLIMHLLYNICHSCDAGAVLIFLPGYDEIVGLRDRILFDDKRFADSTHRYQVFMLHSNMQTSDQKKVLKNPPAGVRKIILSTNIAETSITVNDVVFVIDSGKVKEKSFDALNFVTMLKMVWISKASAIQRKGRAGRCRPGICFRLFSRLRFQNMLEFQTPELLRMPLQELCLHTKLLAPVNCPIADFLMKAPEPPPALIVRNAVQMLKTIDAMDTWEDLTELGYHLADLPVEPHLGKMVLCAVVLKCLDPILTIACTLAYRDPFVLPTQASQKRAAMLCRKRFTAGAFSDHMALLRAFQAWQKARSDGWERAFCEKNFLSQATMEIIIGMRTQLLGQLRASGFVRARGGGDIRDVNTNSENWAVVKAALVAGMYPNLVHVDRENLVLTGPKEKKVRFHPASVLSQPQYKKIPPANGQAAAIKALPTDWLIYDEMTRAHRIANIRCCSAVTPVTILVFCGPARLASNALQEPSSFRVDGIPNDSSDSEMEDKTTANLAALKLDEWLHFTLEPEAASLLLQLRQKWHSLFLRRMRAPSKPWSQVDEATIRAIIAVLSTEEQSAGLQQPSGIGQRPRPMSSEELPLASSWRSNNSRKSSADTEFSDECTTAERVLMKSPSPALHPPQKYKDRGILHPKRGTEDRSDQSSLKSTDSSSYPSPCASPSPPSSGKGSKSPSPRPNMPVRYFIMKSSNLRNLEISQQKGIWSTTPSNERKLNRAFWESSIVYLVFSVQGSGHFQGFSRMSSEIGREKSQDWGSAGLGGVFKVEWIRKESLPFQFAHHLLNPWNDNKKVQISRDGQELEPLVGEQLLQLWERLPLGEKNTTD

[2] = target: T1, recombinant GST fusion protein of CsA associated helicase-like protein (CAHL), full length (human); assay: pull-down; GST pull-down with GST-CAHL and in vitro translated protein in the presence of CsA (1, 2, 8 and 20 µg/ml); only the target purified

## cyclophilin B, in vitro translated (from UniProt P23284 1-216)
[1]
  binding: binds
[2]
  binding: no binding (condition: with CsA (1, 2, 8 and 20 µg/ml))
